Drawing on publication PMC6803390, this text covers binding for 26 molecules.

Chains of the proteins cited; added tags and fusions are not shown. Residues count along the entry.
UniProt Q99JI6: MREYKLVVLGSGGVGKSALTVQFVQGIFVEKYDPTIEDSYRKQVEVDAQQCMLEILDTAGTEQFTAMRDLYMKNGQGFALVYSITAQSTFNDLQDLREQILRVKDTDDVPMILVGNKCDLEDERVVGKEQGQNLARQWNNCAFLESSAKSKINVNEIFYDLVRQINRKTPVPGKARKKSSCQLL
UniProt A2AQ25: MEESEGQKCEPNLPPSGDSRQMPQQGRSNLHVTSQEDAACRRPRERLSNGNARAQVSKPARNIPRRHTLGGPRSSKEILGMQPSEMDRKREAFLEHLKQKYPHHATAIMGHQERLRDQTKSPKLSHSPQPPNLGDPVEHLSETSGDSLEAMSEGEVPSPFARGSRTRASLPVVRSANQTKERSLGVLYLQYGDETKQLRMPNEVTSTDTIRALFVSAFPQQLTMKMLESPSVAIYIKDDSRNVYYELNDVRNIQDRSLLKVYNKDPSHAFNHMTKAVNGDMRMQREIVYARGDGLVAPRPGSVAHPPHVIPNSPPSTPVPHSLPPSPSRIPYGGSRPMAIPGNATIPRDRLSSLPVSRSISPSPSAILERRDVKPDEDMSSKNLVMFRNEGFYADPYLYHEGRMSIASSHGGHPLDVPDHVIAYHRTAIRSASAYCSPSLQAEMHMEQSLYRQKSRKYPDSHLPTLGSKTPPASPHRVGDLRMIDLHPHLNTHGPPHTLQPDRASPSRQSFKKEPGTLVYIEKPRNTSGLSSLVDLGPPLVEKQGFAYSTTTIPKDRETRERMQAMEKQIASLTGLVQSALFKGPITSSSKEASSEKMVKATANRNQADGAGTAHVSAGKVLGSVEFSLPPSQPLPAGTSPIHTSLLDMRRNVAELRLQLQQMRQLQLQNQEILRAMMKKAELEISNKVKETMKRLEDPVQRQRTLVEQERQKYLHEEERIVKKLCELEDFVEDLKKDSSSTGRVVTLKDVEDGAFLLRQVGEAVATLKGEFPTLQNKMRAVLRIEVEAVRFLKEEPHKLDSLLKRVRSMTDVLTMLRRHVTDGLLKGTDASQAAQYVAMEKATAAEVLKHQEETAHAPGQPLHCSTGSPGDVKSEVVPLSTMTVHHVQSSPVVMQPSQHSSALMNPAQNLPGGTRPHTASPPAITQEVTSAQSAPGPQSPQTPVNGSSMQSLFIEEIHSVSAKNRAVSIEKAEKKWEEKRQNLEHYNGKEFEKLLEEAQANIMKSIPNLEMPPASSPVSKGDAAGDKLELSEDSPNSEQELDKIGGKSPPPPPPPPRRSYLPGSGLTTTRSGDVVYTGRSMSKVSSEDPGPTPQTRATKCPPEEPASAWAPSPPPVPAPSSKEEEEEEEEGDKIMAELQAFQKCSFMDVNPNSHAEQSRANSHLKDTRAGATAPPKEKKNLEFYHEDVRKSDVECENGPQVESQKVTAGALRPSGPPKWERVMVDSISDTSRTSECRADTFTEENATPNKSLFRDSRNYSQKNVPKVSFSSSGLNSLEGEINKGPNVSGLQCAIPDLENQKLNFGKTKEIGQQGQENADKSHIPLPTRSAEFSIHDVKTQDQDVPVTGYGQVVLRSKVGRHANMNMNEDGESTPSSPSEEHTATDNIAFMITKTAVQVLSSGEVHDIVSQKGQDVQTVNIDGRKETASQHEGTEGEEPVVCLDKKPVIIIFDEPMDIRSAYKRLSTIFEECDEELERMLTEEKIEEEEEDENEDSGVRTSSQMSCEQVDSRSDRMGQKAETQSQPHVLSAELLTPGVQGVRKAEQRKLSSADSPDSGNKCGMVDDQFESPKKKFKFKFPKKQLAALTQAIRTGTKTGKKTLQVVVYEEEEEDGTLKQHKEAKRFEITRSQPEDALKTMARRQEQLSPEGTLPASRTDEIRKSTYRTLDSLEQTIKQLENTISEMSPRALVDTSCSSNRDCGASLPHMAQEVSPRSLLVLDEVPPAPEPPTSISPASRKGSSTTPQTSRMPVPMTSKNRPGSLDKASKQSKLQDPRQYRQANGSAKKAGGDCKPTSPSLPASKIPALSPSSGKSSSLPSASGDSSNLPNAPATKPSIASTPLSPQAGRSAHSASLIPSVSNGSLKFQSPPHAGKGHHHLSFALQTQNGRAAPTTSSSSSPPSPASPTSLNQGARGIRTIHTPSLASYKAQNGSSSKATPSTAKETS
UniProt Q8C0T5: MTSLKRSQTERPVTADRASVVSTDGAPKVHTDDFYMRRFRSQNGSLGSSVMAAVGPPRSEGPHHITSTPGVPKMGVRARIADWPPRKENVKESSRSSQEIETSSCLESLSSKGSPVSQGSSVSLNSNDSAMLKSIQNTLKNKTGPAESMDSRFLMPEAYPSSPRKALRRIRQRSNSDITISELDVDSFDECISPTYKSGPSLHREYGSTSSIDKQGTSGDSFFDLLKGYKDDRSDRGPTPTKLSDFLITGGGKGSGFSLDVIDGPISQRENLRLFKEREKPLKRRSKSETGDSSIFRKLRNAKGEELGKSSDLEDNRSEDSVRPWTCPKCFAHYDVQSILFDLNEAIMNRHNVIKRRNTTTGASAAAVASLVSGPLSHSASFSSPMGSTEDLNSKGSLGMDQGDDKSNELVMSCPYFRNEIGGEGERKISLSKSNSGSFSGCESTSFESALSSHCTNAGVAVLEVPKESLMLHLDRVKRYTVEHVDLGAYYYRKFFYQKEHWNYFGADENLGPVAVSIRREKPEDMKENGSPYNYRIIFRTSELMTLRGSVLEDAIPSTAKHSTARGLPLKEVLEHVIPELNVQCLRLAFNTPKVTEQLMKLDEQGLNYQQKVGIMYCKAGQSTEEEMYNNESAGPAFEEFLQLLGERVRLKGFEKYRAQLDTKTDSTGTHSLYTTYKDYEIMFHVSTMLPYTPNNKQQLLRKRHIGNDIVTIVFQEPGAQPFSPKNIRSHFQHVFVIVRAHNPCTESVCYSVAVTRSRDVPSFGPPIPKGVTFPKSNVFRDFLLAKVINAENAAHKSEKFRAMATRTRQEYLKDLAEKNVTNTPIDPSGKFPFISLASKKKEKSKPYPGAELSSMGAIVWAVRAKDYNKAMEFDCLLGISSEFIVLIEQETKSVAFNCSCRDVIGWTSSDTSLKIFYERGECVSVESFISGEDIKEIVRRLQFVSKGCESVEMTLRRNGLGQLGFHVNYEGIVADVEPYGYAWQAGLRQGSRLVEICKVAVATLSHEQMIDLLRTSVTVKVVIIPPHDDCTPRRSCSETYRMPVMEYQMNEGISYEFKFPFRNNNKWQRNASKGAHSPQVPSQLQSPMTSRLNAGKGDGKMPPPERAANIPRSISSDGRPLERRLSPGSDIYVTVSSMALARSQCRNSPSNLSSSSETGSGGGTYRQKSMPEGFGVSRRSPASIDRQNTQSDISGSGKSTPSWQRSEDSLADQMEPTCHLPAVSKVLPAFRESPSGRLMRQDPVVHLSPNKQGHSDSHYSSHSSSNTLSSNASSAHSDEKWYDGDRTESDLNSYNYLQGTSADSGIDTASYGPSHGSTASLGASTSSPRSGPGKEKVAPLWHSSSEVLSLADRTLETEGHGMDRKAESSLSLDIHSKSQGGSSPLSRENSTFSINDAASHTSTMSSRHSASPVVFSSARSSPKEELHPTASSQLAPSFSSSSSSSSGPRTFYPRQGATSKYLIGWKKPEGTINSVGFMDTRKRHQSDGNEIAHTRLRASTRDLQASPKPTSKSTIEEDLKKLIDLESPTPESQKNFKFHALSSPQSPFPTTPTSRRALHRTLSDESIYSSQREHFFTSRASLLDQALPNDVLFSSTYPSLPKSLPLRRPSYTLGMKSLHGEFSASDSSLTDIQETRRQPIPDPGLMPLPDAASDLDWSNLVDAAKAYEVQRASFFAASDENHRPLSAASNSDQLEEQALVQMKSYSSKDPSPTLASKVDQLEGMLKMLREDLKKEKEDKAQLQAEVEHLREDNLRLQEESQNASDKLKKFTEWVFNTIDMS
UniProt P20029, residues 20-655: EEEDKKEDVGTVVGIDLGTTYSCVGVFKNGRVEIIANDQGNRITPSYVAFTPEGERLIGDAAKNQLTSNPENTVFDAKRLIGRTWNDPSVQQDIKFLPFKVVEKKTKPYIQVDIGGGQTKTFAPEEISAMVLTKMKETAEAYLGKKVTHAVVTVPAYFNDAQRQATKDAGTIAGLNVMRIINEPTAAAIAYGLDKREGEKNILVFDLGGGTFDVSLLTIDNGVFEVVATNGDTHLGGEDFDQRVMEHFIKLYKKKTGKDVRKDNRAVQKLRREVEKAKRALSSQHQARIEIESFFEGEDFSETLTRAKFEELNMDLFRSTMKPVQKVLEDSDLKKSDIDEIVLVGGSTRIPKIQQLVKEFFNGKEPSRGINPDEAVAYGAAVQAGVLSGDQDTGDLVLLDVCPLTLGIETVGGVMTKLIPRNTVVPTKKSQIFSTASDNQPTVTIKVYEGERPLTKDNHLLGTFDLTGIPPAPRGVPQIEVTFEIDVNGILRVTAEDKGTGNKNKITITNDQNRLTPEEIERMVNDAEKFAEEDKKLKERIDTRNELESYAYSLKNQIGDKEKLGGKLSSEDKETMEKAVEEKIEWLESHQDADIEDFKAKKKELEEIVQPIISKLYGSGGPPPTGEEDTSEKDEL
UniProt Q64331: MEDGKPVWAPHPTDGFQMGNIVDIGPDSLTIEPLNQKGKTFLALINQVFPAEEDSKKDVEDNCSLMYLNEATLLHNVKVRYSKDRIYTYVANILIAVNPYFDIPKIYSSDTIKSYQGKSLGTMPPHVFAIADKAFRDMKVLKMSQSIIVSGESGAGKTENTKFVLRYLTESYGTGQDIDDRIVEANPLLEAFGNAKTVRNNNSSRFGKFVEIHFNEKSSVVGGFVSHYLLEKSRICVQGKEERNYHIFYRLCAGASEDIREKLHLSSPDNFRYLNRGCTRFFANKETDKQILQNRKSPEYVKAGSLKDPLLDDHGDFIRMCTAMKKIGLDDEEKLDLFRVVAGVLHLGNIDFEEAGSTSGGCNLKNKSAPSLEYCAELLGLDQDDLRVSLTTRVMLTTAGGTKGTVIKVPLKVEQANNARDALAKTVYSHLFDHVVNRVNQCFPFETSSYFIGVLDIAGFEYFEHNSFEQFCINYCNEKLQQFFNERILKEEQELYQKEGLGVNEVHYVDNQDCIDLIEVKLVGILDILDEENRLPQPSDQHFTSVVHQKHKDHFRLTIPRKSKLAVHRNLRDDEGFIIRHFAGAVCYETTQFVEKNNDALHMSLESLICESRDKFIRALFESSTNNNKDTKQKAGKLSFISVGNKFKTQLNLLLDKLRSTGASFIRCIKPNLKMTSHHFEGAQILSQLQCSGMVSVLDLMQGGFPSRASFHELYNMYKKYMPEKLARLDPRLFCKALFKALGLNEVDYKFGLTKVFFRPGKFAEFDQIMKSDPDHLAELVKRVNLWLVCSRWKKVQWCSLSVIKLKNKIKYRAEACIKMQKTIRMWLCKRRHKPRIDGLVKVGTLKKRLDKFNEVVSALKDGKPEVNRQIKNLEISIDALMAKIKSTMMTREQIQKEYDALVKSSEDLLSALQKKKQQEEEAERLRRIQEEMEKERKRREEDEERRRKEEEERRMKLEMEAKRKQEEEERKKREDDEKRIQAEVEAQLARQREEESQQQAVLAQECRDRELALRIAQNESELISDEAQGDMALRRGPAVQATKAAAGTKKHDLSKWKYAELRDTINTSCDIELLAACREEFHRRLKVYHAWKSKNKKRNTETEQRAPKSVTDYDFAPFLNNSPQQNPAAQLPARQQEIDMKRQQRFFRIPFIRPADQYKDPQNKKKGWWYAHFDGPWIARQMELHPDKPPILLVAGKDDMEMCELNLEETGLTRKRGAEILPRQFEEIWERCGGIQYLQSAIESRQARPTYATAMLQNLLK
UniProt Q02248: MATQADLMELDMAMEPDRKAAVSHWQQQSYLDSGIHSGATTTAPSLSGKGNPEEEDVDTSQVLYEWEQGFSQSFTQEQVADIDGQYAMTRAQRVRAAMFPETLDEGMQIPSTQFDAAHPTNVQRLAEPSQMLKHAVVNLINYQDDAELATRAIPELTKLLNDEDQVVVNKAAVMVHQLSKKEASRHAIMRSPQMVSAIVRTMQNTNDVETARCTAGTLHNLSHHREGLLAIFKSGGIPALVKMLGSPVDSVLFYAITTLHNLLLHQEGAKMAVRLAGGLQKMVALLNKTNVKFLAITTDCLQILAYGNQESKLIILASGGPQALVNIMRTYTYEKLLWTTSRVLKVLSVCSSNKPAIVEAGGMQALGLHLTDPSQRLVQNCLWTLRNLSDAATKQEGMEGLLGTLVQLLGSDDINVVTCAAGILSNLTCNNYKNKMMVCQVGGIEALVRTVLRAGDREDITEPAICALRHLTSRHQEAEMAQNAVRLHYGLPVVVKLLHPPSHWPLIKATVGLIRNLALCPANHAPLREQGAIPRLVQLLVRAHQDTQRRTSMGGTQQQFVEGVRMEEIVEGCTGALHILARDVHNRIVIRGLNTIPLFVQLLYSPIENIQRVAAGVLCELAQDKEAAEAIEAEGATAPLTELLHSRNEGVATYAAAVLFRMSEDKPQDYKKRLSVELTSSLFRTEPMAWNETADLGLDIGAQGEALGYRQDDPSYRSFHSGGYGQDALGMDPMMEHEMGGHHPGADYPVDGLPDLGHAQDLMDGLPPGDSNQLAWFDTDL

First the molecules themselves.
B1: Tectonin beta-propeller repeat-containing protein 1 (protein, UniProt Q80VP0 1-1166)
chain: MPTSVLWAVDLFGRVYTLSTAGQYWELCKDVQLEFKRVSAATQCCWGIAGDNQVYLYVCSSDVPIRHREEAYENQRWNPMGGFCEKLLPSDRWPWSDVSGLQHRPLDGVALPSPHWEWESDWYVDENFGGEPTEKGGWTYAMDFPATYTRDKKWNSCVRRRKWIRYRRYKSRDSWAKIPSKDDPKELPDPFNDLSVGGWEITEEPVGRLSVWAVSLQGKVWYREDVSHPNPEGSSWSLVETPGEVVQISCGPHDLIWATLWEGQALVREGVCRNNPKGSYWSMVEPPGSENGIMHVSAGVSVVWAITKDRKVWFRRGVNSHNPCGTSWIEMVGEMTMVNVGLNDQVWGISCEDRAVYFRQGVTPSELSGKTWKAIVVGRESDRSHSGSSSSLLSAGCFFGDEVRGSGTESAPSDTDASLEVERQGPEQPLPKEALDNSTNLKGSLSKGHETSGNTDHSTENACLTEGKEKAPETSRSDECRGPASTPAELPWTNIDLKEPKKVSNQPAAGFPETAGLSSLGLFPMGMEEPYGADDHPLWAWVSGGACAVEAGSTLKWFTIQSGLSPSVQTLSLSITPAQTAAWRKQIFQQLTERTKRELESFRHYEQAVEQSVWVKTGALQWWCDWKPHKWVDVRVALEQFTGHDGARDSILFIYYVVHEEKKYLHVFLNEVTVLVPVLNEAKHSFALYTPERTRQRWPVRLAAATEQDMNDWLALLSLSCCESRKVHGRPSPQAIWSVTCKGDIFVSEPSPDLEARERLLPCDQMFWRQMGGHLRIIEANSRGVVWGIGYDHTAWVYTGGYGGGCFQGLASSTSNIYTQSDVKSVYIYENQRWNPVTGYTSRGLPTDRFMWSDVTGLQECTKAGTKPPSLQWTWVSDWYVDFSVPGGTDQEGWQYASDFPASYHGYKTMKDFVRRRCWARKCKLVTSGPWLEVAPITLSDVSIIPESAHADGRGHNVALWAVSDKGDVLCRLGVSELNPAGSSWLHVGTDQPFASVSIGACYQVWAVARDGSAFYRGSVSPSQPAGDCWYHIPSPPKQKLTQVSVGQTSVYALDENGNLWYRAGITPSYPQGSSWEHVSNNVRKVSVGPLDQVWVIANKVQGSHGLSRGTVCRRMGVQPREPKGQGWDYGIGGGWDHISVRANATRVPRNMSRDREARGPGPVCC
B2: GTPase-activating protein (GAP) RP2 (protein, UniProt Q9EPK2 1-347)
chain: MGCCFTKRRKSEKAEGEEEQPKLYSWDQREKVDPKDYMFSGLKDETVGRLPGKVAGQQFVIQDCENCNIYIFDHSATITIDDCTNCVIFLGPVKGSVFFRNCRDCKCTLACQQFRVRDCRKLEVFLCCATQPIIESSTNIKFGCFQWYYPELAAQFKDAGLSIFNNIWSHVHDFTPVSGELNWSLLPENAVVQDYVPIPMTEEFKAVRISTEANRSIVPVSRGQRQKYSDESCLVVLFADDYTTANARKLIDEMVGKGFSLVQTKEMSMKTEDAQRVFQEKASDFLLLLNKGPVIALEFNGDDAVQECHLIVNGMFNGTKMFVSEKKETASGDVDSFYNFAEIQMGI
B3: FLII (protein, UniProt Q9JJ28 1-1271)
chain: MEATGVLPFVRGVDLSGNDFKGGYFPENVKAMTSLRWLKLNRTGLCYLPEELAALQKLEHLSVSHNHLTTLHGELSSLPSLRAIVARANSLKNSGVPDDIFKLDDLSVLDLSHNQLTECPRELENAKNMLVLNLSHNGIDSIPNQLFINLTDLLYLDLSENRLESLPPQMRRLVHLQTLVLNGNPLLHAQLRQLPAMMALQTLHLRNTQRTQSNLPTSLEGLSNLSDVDLSCNDLTRVPECLYTLPSLRRLNLSSNQIAELSLCIDQWVHLETLNLSRNQLTSLPSAICKLTKLKKLYLNSNKLDFDGLPSGIGKLTSLEEFMAANNNLELIPESLCRCPKLKKLVLNKNRLVTLPEAIHFLTEIQVLDVRENPSLVMPPKPADRTAEWYNIDFSLQNQLRLAGASPATVAAAAAVGSGSKDPLARKMRLRRRKDSAQDVQAKQVLKGMSDVAQEKNKNQEESIDARAPGGKVRRWDQGLEKPRLDYSEFFTEDVGQLPGLTIWQIENFVPVLVEEAFHGKFYEADCYIVLKTFLDDSGSLNWEIYYWIGGEATLDKKACSAIHAVNLRNYLGAECRTVREEMGDESEEFLQVFDNDISYIEGGTASGFYTVEDTHYVTRMYRVYGKKNIKLEPVPLKGSSLDPRFVFLLDQGLDIYVWRGAQATLSNTTKARLFAEKINKNERKGKAEITLLVQGQEPPGFWDVLGGEPSEIKNHVPDDFWPPQPKLYKVGLGLGYLELPQINYKLSVEHKKRPKVELMPGMRLLQSLLDTRCVYILDCWSDVFIWLGRKSPRLVRAAALKLGQELCGMLHRPRHTVVSRSLEGTEAQVFKAKFKNWDDVLTVDYTRNAEAVLQGQGLSGKVKRDTEKTDQMKADLTALFLPRQPPMPLAEAEQLMEEWNEDLDGMEGFVLEGRKFTRLPEEEFGHFYTQDCYVFLCRYWVPVEYEEEEKTEDKEGKASAEAREGEEAAAEAEEKQPEEDFQCIVYFWQGREASNMGWLTFTFSLQKKFESLFPGKLEVVRMTQQQENPKFLSHFKRKFIIHRGKRKVTQGTLQPTLYQIRTNGSALCTRCIQINTDSSLLNSEFCFILKVPFESEDNQGIVYAWVGRASDPDEAKLAEDILNTMFDASYSKQVINEGEEPENFFWVGIGAQKPYDDDAEYMKHTRLFRCSNEKGYFAVTEKCSDFCQDDLADDDIMLLDNGQEVYMWVGTQTSQVEIKLSLKACQVYIQHTRSKEHERPRRLRLVRKGNEQRAFTRCFHAWSTFRQAPA

Results are given in words; binding and its absence hold for the method and conditions named. In cells and extracts the contact can be indirect. A yes stands for co-enrichment or nearness to the bait. Other partners may have been found.

The first assay deals with T1, p140Cap adaptor protein (UniProt Q9QWI6).
T1 sequence: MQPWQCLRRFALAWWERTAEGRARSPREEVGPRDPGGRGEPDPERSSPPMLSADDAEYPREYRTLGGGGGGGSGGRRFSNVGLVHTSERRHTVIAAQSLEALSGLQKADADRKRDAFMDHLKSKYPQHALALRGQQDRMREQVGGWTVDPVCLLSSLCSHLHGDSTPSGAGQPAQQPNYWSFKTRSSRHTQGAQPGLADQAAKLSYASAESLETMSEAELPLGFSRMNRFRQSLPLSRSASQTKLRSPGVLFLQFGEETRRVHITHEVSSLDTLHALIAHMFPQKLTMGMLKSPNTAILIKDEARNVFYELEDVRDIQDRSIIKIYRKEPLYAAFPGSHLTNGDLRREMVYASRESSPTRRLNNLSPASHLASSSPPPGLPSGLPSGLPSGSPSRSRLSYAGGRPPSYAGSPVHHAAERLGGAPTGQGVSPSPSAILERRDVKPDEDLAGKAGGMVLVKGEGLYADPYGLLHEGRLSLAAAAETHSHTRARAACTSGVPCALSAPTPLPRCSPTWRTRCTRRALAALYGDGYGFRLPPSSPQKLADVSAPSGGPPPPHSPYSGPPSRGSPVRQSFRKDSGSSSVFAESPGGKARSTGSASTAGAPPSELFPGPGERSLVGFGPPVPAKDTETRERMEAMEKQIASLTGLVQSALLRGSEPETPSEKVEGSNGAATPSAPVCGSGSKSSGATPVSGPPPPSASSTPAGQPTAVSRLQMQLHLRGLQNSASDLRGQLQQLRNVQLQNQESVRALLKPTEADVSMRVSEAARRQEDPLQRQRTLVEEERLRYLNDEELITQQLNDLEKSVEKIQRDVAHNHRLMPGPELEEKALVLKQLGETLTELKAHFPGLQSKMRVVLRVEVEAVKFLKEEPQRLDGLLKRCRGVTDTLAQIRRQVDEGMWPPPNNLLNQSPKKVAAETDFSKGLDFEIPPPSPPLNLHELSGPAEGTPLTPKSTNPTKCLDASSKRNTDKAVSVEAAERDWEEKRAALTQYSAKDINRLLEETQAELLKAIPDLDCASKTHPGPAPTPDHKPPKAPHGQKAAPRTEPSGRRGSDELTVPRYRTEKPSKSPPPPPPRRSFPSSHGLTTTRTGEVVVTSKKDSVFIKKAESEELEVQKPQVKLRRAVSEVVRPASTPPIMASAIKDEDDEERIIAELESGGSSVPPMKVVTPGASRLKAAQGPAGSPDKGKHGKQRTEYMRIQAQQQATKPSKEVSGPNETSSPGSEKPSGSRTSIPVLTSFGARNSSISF
Put plainly: affinity purification with mass spectrometry; p140Cap Mab cross-linked to protein G Dynabeads, 9 mg cell extract of p140-TUBO against NeuT-TUBO (mock) cells, lysis buffer 150 mM NaCl, 50 mM Tris pH 7.4, 1% NP-40, 1 mM MgCl2, 5% glycerol, 2 h at 4°C; label-free nanoLC-MS/MS, three experiments.
Regarding B1, the binding entry is listed as “binds”.
Same read-out and setting: as for B2, the entry is “binds”; as for B3, “binds”.

A further assay concerns the target T1, p140Cap adaptor protein. The assay is described as above. This is another data set of the same source.
As to DDX3X (from UniProt Q62167 1-662), the binding result is recorded as “binds”.
Regarding GRB2 (from UniProt Q60631 1-217), the binding entry was “binds”.
The same measure, in the same setting: as for “CSNK2A1 (from UniProt Q60737 1-391) (enzyme)”, the entry is “binds”; as for “TNIK (from UniProt P83510 1-1323) (enzyme)”, “binds”.
Same read-out and setting: the result for CDC42 (from UniProt P60766 1-191) reads “binds”; that for “Flotillin (mouse (endogenous in TUBO cells))”, “binds”.
Still for that read-out and setting: as for RAP1B (from UniProt Q99JI6 1-184), the entry is “binds”; as for “PPFIA1 alias Liprin (mouse (endogenous in TUBO cells))”, “binds”.
For the molecule “Sickle tail protein (from UniProt A2AQ25 1-1946)”, the binding entry is reported as “binds”.
Same read-out and setting: the result for SIPA1L1 (from UniProt Q8C0T5 1-1782) reads “binds”; that for “Cadherin-1 (from UniProt P09803 157-884)”, “binds”; that for CAPZA2 (from UniProt P47754 1-286), “binds”.
Take HNRNPK (from UniProt P61979 1-463): the binding entry was “binds”.
Same read-out and setting: the result for “JTJP2 (mouse (endogenous in TUBO cells))” reads “binds”.
On the same count and under the same terms, as for HSPA5 (from UniProt P20029 20-655), the entry is “binds”; as for “Actinin B (mouse (endogenous in TUBO cells))”, “binds”; as for “Catenin alpha-1 (from UniProt P26231 1-906)”, “binds”.
Still for that read-out and setting: the result for “Ras GTPase-activating-like protein IQGap1 (from UniProt Q9JKF1 1-1657)” reads “binds”; that for Myosin 6 (from UniProt Q64331 1-1262), “binds”.
For RANBP9 (from UniProt P69566 1-653), the binding entry is “binds”.
On the same count and under the same terms, the result for “ERBB2IP (ERBIN) (from UniProt Q80TH2 1-1402)” reads “binds”; that for “Catenin beta-1 (from UniProt Q02248 1-781)”, “binds”.
The same measure, in the same setting: the result for “MLLT4 also known as Afadin (from UniProt Q9QZQ1 1-1820)” reads “binds”.
